pIC50: −log10 of the molar value. Where a name gives a salt, the structure may show the parent alone. Some entries share one result that the patent states for a list of compounds. At least one compound was matched to its structure with a doubt left.
Molecular target: T1, glutathione S-transferase (GST)-fused full-length human Syk protein (Homo sapiens, UniProt P43405)
T1 construct: (GST)-fused full-length human Syk protein; GST (glutathione S-transferase); purchased Carna Biosciences
Test: Syk enzyme assay
Type: biochemical
Conditions: read-out: Syk-inhibitory activity (IC50)
Experimental: A glutathione S-transferase (GST)-fused full-length human Syk protein (Carna Biosciences), which had been generated using a Baculovirus expression system, was used in the Syk enzyme assay.
15 μl of a reaction solution (1.2 ng Syk, 20 mM HEPES, 10 mM MgCl2, 50 mM NaCl, 2 mM DTT, 0.05% BSA, pH 7.0) containing a Syk protein and a predetermined concentration of a test compound was shaken for 2 minutes, and it was then left at rest at room temperature for 13 minutes. Thereafter, 5 μl of Biotin-EDPDYEWPSA-NH2 (final concentration: 0.4 μM) serving as a substrate peptide and 5 μl of ATP (final concentration: 27 μM) were added to the reaction solution, and the obtained mixture was then shaken for 2 minutes. The reaction solution was further left at rest at room temperature for 40 minutes, so as to carry out an enzyme reaction.
Thereafter, 50 μl of a reaction termination solution [5 μg/ml Streptavidin, 0.18 μg/ml PT66-K, 30 mM HEPES (pH 7.0), 150 mM KF, 75 mM EDTA, 0.15% BSA, 0.075% Tween20], which contained Streptavidin-Xlent (Cisbio) and Mab PT66-K (Cisbio), was added to the reaction solution to terminate the enzyme reaction. […] Thereafter, using EnVision (PerkinElmer), the time-resolved fluorescence was measured at 615 nm and 665 nm, so that the phosphorylation of the substrate peptide was measured. […]

**Q.** `NC(=O)c1cc(F)c(N[C@@H]2CCCC[C@@H]2N)nc1Nc1cncc(-c2ccccc2)c1` (relative stereo) [Example 1, 6-(cis-2-aminocyclohexylamino)-5-fluoro-2-(5-phenylpyridin-3-ylamino)nicotinamide•hydrochloride] was tested. Which pIC50 did it give?
**A.** ≥ 6.00

Source: patent US8895585B2, “Nicotinamide derivative or salt thereof” (FUJIFILM Corporation, priority 2010, dated 2014)
